Laboratory results taken from publication PMC6834558.
These are yes or no findings as the source states them, for the method shown. In cells and extracts the contact can be indirect. Here binding means that the protein was enriched with, or labelled near, the bait; the list need not be complete. Tags and fused reporters may be left off the sequences shown.

Target: T1, EGFL9-V5 (overexpressed in HMLE/EGFL9 cells) (UniProt Q6UY11)
T1 sequence: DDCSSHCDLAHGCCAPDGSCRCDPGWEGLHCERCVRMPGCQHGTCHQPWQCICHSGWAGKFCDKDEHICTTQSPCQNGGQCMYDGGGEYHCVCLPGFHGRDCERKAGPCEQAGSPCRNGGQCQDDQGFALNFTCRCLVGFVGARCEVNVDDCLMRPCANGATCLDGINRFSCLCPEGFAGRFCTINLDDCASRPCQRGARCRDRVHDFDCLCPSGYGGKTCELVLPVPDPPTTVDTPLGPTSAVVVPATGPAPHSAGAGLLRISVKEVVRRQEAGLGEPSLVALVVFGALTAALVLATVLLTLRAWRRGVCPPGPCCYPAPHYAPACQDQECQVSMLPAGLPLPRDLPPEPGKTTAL
Assay: affinity purification with mass spectrometry; EGFL9 IP from mitochondria purified from HMLE/EGFL9 cells, followed by mass spectrometry

B1: COA3 (endogenous, mitochondria of HMLE/EGFL9 cells) (protein, UniProt Q9Y2R0 1-106)
chain: MASSGAGDPLDSKRGEAPFAQRIDPTREKLTPEQLHSMRQAELAQWQKVLPRRRTRNIVTGLGIGALVLAIYGYTFYSISQERFLDELEDEAKAARARALARASGS
binding: binds
